# Measured values: PubChem BioAssay AID1347426 (Functional Genomics Laboratory (NCATS/FGL), 2020)
# Screen size: about 31,000 sequences; about 1,400 (4.5%) were called active.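 The calls were made as follows: active = median seed-adjusted z-score above 1 or below -1; inactive = the rest.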 The list shows a part of the results.
# Assay: Novel Modifiers of Survival Motor Neuron (SMN) Protein: Gene Identification via Genome-wide siRNA Screen;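 also: luminescence tracks full-length SMN protein made from the SMN2 reporter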
# Details: HEK293T SMN2-luciferase reporter, siRNA knockdown, 72 h; actives lie on both sides
# Outline: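 HEK293T cells stably carrying an SMN2 promoter/splicing cassette–luciferase reporter were reverse-transfected with 1 pmol siRNA per well (druggable-genome library, 3 siRNAs per gene) and grown 72 h at 37 °C. Luminescence, normalized to negative-control siRNA and log10-transformed, was scored as MAD.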
row,Sequence,median seed-adjusted z-score
1,CACCAACGGCUAUGAGGAATT against AEBP1,inactive: -0.0536
2,CGUCUAUUCAGGAAACCUATT against PGLYRP2,inactive: -0.697
3,GGUCAUUGUGAAAAGUAGATT against GCLM,inactive: 0.0509
4,UCGUCUUUGUGCUCAAAGATT against DNAJB5,inactive: -0.444
5,GCAAUCUAGUCAACGGAGATT against EEA1,inactive: 0.0278
6,GGAUAGAAAGUCCAACGGATT against ATMIN,inactive: -0.55
7,CGCAGAACCUGAGAGUCUATT against DMRT3,inactive: 0
8,CGUCUAGAGUCGUUGAGAATT against NDC80,inactive: 0.0855
9,GCUGAUUCUUCGAGGCCGATT against SIGIRR,inactive: 0.0269
10,CGAAUUUAGAUGCUGGUCATT against NRL,inactive: -0.352
11,GGAUGCAGAACGACGUGAATT against SLC25A10,inactive: -0.571
12,GGUCUUCAAUCAAAAUCCATT against ZNF610,inactive: 0.432
13,AGAAUGCGCUGAACGGUAUTT against RBPMS2,inactive: -0.485
14,AGAAACAUCCGGAACCCUUTT against SIRT2,inactive: 0.727
15,CCAGUUCCUAUAUAAGACATT against ZNF563,inactive: 0.00283
16,GGAGGAUGGACUUAUCAAATT against CRMP1,inactive: -0.354
17,GCAACUACAUCAAGGUGCATT against GNAT1,inactive: -0.188
18,GAACAACUACCUUCGGGAATT against SPINT1,inactive: 0.0172
19,AAAACUUACGAACAACAAATT against TBR1,inactive: -0.388
20,CCUCUUGCCUUGUAUACAATT against RAET1G,inactive: -0.0655
21,CCAACUCAAACAACGAUAATT against RAVER2,inactive: -0.258
22,CACCUACAUUAAUGCUAAUTT against PTPRR,inactive: 0.502
23,GCAGUUAUGCUUCAAGUCATT against NFRKB,inactive: 0.787

row,Sequence,median seed-adjusted z-score
1,GGGCCUAACAUCAUCCUCATT against CRTC2,inactive: -0.691
2,CCAUCGGCCGGAAAAGAAATT against AKR1C2,inactive: -0.109
3,CAAACCUAUACAUCUCAAATT against RBMS3,inactive: 0.0976
4,CAUGAUCAUCCGUAAAGUATT against RBPJL,inactive: 0.373
5,CAAACUCCAACUUAUGAAATT against CD34,inactive: -0.0898
6,GCCUUAAGCUGACUUAGAATT against AKR7A2,inactive: 0.192
7,GAAGCUACAGACACCAAUATT against ENTPD4,inactive: 0.324
8,CGAUGACUUCUACACCUUUTT against ADCY7,inactive: -0.0202
9,CAAGACUACGAUUACCUCATT against CDH4,inactive: 0
10,AAAGAAUCAUUGUGAAAGATT against PARVA,inactive: 0.0852
11,CGAACAACUAAAUACCACATT against PRMT2,inactive: 0.0895
12,GCAUUAGUGAGGAUAGGCATT against SLC25A30,inactive: 0
13,GCAUCAGUAUCUGACCUUUTT against UBE2N,inactive: 0.995
14,AAGCACAACUUGACCGUGATT against USP20,inactive: -0.369
15,AGACUCAACCAGUACGUAATT against LYN,inactive: -0.178
16,GCUCAUCGCUCAGAAGAAATT against SF4,inactive: 0.498
17,CAUACCUUAUGAAACAUAUTT against ZNF384,inactive: -0.132
18,GGAAUACAGGAACUUCUAATT against UBE2I,inactive: 0.717
19,GCUAAAUGCCCUGAACAAATT against AKR1A1,inactive: -0.255
20,AGAAGAUCCUGUUCCAAGATT against TAOK2,inactive: 0.28
21,GAUCCAUCCUUCUCACGUUTT against ATXN2,inactive: 0
22,AGAUGUACGAUUAUAGUUUTT against CSNK2A1,inactive: -0.408
23,CCACCUAUAAGAUAGAAGATT against MTTP,inactive: 0

row,Sequence,median seed-adjusted z-score
1,AGAUGACCCAGAAAUAUGATT against PVRL4,inactive: -0.266
2,GCACAGUCCCAAUAACAGUTT against DLX3,inactive: 0
3,GGUCGGAGCAAGGAGAGAATT against CD300LB,inactive: -0.466
4,GGGAAGAAAUUACGAUGGATT against TOR3A,inactive: 0.225
5,GAAGACUUCCAUAAACGAATT against TPX2,inactive: -0.564
6,CCAGCUCUGGAAUUAGAUATT against NRBP1,active: -1.13
7,GUAUACUCCAGAACAAGUATT against ALDOB,active: -1.34
8,GCAUCCACAUUGACCAGAUTT against BAI1,inactive: -0.663
9,GCAACAUAUGGGAAUUAGATT against MEIS1,inactive: 0
10,GCUUUGGAAGGGUUUGAUATT against DCT,inactive: -0.184
11,GUCUAAAUCUCGUUCCAAATT against SRrp35,inactive: -0.0574
12,CAUAAAAUGUGAGACUUCUTT against PPFIA4,inactive: 0.0399
13,GGACCCGGGCUUUAGCUAUTT against DVL1,inactive: -0.814
14,GGAUGUAAUUCACACGGAUTT against PNLIP,inactive: 0.385
15,GAAUUCAGAUGCGAGUAAATT against RFX6,inactive: 0.119
16,GAAGAGGACUGAUAAUGGATT against MLLT6,inactive: -0.281
17,CCGUGUACGUGUUUGGUCATT against OTUD7A,inactive: -0.53
18,GGAACUUGCAUCAACAAUATT against AGPAT9,inactive: 0
19,CUGUAUUAGUGAAUCCGAUTT against MTRR,inactive: -0.381
20,AAGUACAUAUAACCACUUATT against RAB14,inactive: -0.0567
21,CCUGAAUUCUGGGUCAGAATT against AGXT2L2,inactive: -0.0495
22,AGCAUUCUGUUAUGACCUATT against FLNC,inactive: 0.00217
23,ACAUUCAUGUGGGUGACUATT against CYP27B1,inactive: -0.149

# Nothing new here: entries from further up.
row,Sequence,median seed-adjusted z-score
7,GUAUACUCCAGAACAAGUATT against ALDOB,active: -1.34
8,GCAUCCACAUUGACCAGAUTT against BAI1,inactive: -0.663
9,GCAACAUAUGGGAAUUAGATT against MEIS1,inactive: 0
10,GCUUUGGAAGGGUUUGAUATT against DCT,inactive: -0.184
11,GUCUAAAUCUCGUUCCAAATT against SRrp35,inactive: -0.0574
12,CAUAAAAUGUGAGACUUCUTT against PPFIA4,inactive: 0.0399
13,GGACCCGGGCUUUAGCUAUTT against DVL1,inactive: -0.814
14,GGAUGUAAUUCACACGGAUTT against PNLIP,inactive: 0.385
15,GAAUUCAGAUGCGAGUAAATT against RFX6,inactive: 0.119
16,GAAGAGGACUGAUAAUGGATT against MLLT6,inactive: -0.281
17,CCGUGUACGUGUUUGGUCATT against OTUD7A,inactive: -0.53
18,GGAACUUGCAUCAACAAUATT against AGPAT9,inactive: 0
19,CUGUAUUAGUGAAUCCGAUTT against MTRR,inactive: -0.381
20,AAGUACAUAUAACCACUUATT against RAB14,inactive: -0.0567
21,CCUGAAUUCUGGGUCAGAATT against AGXT2L2,inactive: -0.0495
